# Data taken from the supplement of paper PMC6411743.
# By UniProt entry, the sequences of proteins in these tests, tags left out. Where a name states a change or a piece, a line headed by the entry shows the natural chain unless it says otherwise.
# UniProt Q9H2H8: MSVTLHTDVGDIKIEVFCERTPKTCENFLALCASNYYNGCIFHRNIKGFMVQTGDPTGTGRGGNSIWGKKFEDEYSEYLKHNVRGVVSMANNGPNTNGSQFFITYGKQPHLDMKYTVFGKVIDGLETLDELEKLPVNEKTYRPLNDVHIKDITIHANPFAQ
# UniProt Q9H0D6: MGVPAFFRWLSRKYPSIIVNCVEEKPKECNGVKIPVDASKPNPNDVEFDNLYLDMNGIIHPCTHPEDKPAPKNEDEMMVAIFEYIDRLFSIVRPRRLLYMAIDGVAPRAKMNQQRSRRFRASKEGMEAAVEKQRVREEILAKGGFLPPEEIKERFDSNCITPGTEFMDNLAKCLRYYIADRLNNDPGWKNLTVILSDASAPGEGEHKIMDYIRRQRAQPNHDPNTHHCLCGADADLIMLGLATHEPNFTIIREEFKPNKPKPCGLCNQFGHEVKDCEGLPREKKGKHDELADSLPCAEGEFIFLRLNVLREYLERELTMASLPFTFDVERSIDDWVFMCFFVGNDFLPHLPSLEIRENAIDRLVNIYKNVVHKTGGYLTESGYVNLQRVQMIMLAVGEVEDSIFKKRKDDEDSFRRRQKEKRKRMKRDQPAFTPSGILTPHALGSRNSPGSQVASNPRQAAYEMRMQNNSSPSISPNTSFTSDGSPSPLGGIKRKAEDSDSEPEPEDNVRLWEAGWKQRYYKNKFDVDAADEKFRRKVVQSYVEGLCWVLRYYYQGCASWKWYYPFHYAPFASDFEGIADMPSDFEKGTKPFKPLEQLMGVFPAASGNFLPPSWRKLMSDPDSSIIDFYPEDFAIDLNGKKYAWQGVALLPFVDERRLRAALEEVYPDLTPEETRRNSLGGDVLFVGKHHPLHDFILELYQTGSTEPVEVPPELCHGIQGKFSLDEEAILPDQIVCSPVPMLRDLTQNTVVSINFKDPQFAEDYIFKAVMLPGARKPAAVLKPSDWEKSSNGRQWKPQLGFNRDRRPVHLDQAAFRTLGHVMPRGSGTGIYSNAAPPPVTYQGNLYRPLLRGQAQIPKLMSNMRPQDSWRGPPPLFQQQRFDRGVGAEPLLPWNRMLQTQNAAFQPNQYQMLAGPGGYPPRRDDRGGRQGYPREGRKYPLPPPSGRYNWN
# UniProt Q9HCE5: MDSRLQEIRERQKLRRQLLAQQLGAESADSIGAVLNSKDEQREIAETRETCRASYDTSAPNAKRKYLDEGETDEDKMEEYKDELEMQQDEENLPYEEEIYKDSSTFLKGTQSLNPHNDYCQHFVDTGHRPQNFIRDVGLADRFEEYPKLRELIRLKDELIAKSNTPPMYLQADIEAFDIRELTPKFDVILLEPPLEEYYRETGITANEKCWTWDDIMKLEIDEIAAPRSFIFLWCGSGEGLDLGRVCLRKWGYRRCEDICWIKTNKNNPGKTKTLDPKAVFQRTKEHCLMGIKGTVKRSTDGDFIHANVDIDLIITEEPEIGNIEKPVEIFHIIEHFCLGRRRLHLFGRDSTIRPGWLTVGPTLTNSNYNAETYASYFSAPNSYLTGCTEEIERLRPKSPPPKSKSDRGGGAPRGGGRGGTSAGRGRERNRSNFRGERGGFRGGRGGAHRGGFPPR
# UniProt Q9H4A5: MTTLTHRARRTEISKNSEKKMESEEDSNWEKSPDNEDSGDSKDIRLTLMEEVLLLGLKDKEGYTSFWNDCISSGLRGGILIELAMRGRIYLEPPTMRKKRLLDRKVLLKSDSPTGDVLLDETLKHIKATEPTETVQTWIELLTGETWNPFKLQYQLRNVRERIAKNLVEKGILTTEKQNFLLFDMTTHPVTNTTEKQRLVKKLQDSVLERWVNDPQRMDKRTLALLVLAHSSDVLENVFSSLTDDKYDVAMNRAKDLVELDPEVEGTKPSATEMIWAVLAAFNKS
# UniProt Q9H4A6: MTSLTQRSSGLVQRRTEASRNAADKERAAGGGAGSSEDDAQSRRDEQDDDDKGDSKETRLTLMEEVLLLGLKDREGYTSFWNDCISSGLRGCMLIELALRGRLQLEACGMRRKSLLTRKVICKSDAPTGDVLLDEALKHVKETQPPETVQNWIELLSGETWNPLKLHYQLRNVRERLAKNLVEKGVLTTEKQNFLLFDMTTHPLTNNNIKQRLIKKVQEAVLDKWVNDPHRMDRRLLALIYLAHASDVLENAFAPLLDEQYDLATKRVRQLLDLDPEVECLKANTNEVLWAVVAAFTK
# UniProt Q9H1E5: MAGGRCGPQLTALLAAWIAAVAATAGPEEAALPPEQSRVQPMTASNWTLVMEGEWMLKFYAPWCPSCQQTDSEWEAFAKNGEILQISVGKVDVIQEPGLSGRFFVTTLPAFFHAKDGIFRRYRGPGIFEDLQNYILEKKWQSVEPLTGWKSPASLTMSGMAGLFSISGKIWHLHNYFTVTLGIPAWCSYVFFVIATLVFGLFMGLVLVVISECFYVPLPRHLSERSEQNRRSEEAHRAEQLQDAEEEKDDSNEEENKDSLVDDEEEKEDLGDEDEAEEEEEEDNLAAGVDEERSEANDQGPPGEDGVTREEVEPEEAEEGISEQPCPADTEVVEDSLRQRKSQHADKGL
# UniProt Q9HBM1: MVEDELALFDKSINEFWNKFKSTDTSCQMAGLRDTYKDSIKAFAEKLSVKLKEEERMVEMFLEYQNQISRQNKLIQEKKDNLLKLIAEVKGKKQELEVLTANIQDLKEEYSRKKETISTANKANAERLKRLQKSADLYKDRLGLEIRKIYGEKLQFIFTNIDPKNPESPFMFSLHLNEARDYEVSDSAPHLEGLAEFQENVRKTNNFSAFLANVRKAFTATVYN
# UniProt Q9H270: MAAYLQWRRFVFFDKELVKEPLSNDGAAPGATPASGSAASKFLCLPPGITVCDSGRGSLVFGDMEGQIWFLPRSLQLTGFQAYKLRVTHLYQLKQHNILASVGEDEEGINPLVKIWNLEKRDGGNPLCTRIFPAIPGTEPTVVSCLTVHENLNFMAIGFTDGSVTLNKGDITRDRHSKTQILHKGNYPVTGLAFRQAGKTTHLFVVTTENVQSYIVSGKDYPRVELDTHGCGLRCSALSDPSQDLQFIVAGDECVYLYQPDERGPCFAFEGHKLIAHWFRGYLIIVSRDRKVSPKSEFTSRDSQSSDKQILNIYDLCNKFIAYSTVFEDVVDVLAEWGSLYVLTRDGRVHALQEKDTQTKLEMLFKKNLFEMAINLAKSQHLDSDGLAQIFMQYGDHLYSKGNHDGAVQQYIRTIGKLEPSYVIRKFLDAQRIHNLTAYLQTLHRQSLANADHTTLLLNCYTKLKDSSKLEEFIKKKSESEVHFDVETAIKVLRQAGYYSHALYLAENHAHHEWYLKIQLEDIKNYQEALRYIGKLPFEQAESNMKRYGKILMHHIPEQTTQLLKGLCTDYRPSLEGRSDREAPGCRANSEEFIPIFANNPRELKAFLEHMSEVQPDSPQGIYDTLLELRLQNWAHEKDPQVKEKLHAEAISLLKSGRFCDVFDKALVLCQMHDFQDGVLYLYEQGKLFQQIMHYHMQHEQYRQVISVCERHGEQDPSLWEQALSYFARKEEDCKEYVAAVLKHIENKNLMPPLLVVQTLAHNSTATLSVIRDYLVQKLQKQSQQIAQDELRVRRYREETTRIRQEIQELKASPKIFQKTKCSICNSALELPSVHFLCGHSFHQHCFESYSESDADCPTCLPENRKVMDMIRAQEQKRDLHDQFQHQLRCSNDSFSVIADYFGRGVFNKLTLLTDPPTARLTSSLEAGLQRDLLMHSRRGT
# UniProt Q9H2K8: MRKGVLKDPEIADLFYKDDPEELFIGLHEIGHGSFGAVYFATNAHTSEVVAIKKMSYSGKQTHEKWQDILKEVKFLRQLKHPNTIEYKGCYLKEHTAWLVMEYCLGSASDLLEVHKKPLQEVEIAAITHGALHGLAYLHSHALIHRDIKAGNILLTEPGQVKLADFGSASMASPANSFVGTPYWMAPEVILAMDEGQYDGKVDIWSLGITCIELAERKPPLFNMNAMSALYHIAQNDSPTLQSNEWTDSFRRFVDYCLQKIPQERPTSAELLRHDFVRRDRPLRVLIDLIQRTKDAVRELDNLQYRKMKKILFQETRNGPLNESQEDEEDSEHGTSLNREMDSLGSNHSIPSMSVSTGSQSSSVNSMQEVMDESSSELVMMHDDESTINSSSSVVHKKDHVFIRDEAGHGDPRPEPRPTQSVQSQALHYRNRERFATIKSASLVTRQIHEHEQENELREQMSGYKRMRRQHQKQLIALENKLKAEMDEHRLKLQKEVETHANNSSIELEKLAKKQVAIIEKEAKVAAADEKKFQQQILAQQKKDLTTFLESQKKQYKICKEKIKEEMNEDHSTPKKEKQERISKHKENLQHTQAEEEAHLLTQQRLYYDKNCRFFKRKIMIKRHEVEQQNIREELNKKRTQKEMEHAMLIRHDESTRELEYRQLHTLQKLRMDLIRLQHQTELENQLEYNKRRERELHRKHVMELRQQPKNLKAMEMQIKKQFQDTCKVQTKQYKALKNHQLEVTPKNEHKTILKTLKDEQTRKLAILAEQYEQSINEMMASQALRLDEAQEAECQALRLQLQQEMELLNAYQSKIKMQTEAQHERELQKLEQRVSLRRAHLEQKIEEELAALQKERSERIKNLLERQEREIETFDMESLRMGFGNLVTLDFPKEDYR
# UniProt Q9H477: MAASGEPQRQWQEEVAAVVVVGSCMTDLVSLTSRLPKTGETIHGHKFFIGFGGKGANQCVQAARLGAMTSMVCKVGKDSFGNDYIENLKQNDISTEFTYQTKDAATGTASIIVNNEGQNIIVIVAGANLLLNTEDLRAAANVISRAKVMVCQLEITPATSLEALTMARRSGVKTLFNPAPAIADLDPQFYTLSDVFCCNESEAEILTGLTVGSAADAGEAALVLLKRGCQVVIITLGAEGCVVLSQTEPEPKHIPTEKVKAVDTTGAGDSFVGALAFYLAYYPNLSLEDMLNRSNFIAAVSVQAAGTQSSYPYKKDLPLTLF
# UniProt Q9HD42: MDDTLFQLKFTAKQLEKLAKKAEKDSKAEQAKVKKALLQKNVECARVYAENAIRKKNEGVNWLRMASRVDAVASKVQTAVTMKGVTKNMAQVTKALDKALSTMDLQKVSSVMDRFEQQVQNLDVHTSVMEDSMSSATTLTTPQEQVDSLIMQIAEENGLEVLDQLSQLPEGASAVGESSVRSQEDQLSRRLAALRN
# UniProt Q9HDC5: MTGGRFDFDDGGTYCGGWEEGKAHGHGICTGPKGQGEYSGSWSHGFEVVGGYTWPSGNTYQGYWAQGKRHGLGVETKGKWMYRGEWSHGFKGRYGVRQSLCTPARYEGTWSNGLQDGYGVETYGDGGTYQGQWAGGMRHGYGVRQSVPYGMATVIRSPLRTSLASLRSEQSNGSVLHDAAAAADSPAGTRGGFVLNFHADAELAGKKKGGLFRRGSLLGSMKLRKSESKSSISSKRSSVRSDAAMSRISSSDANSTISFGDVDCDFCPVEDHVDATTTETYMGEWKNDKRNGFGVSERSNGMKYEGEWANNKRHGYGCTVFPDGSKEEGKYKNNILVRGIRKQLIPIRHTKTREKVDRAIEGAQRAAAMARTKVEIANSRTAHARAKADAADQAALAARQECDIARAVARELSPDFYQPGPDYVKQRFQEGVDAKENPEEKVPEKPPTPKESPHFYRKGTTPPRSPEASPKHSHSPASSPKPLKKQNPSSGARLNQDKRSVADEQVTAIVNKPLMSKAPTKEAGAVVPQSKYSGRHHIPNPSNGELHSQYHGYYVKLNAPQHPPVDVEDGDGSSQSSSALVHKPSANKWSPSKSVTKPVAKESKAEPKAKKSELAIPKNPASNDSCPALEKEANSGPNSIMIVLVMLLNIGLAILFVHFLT
# UniProt Q9H7Z6: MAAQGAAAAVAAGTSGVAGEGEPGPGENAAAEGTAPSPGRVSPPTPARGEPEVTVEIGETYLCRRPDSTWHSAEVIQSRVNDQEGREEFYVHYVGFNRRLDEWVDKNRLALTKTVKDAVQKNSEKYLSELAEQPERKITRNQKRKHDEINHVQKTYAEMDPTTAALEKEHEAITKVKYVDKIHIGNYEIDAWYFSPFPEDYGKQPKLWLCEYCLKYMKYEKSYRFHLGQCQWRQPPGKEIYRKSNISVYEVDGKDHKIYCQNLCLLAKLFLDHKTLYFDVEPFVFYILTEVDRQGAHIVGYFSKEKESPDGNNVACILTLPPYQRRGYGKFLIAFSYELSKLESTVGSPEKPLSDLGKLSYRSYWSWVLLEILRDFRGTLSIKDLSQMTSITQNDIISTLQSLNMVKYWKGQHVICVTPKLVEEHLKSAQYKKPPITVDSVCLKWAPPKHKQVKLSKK
# UniProt Q9H2P9: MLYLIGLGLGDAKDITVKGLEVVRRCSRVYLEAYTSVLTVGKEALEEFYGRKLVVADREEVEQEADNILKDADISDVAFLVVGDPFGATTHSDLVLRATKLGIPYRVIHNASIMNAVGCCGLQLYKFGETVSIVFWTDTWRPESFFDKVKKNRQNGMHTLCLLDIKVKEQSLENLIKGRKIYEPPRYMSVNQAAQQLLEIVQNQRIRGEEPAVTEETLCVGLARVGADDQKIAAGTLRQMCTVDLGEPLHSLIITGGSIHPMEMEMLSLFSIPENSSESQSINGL
# ± gives the standard deviation of the averaged measurements. The entries are a selection whose mix differs from that of the whole data set. Small differences around the control level are noise.
# Compound: Nc1ncnc2c1ncn2[C@@H]1O[C@H](COP(=O)(O)OP(=O)(O)OP(=O)(O)O)[C@@H](O)[C@H]1O [adenosine triphosphate]
# Assay: NP40-soluble protein abundance relative to vehicle (solubility fold change) (ratio); higher = more soluble protein in presence of ATP
# Outline: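 In three independent experiments, Jurkat crude lysate made by Dounce homogenisation was treated for 10 min at room temperature and then 3 min at 37 °C with eight concentrations ranging from 0.1 to 10 mM. It was then solubilised with 0.8% NP40 plus benzonase for 60 min at 4 °C and ultracentrifuged. The supernatant was TMT-labelled for LC-MS/MS, and each value is the fold change against the detergent-processed vehicle for the same replicate, using vsn-normalised intensities.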
Target,NP40-soluble protein abundance (concentration: 0.1mM),NP40-soluble protein abundance (concentration: 0.5mM)
UniProt Q9H7P9 and related entries,0.981 ± 0.046,0.976 ± 0.1
UniProt Q9H2H8 and related entries,1.02 ± 0.047,1.05 ± 0.089
UniProt Q9H7H0 and related entries,0.961 ± 0.051,1.06 ± 0.12
UniProt Q9H3H3-2|Q9H3H3-3,0.991 ± 0.1,0.977 ± 0.042
XRN2 (UniProt Q9H0D6),1.01 ± 0.024,1.02 ± 0.049
UniProt Q9HCE5,1.03 ± 0.068,1.04 ± 0.063
FTO (UniProt Q9C0B1),1.05 ± 0.076,1.05 ± 0.07
GOLPH3L (UniProt Q9H4A5),0.99 ± 0.042,0.998 ± 0.015
GOLPH3 (UniProt Q9H4A6),0.977 ± 0.025,0.986 ± 0.063
UniProt Q9H1E5,0.94 ± 0.07,0.935 ± 0.095
HMG20A (UniProt Q9NP66),0.902 ± 0.13,0.945 ± 0.069
UPF2 (UniProt Q9HAU5),1.02 ± 0.022,1.02 ± 0.06
UniProt Q9H9Y6 and related entries,1.12 ± 0.031,1.12 ± 0.049
PDCL3 (UniProt Q9H2J4),0.961 ± 0.044,0.958 ± 0.059
RAB3GAP2 (UniProt Q9H2M9),1.06 ± 0.051,1.05 ± 0.049
SPC25 (UniProt Q9HBM1),1.002 ± 0.0014,0.952 ± 0.06
UniProt Q9H270 and related entries,1.05 ± 0.066,1.03 ± 0.046
UniProt Q9HD47 and related entries,0.986 ± 0.081,0.985 ± 0.067
ANAPC1 (UniProt Q9H1A4),1.03 ± 0.045,1.04 ± 0.029
TAOK3 (UniProt Q9H2K8),1.02 ± 0.053,1.033 ± 0.0076
UniProt Q9H477 and related entries,1.1 ± 0.056,1.04 ± 0.058
CHD8 (UniProt Q9HCK8),1 ± 0.011,1.02 ± 0.039
UniProt Q9GZU8,0.938 ± 0.044,0.917 ± 0.028
FN3KRP (UniProt Q9HA64),1.04 ± 0.063,1.07 ± 0.058
CHMP1A (UniProt Q9HD42),1.05 ± 0.11,1.07 ± 0.17
JPH1 (UniProt Q9HDC5),1.01 ± 0.018,1.16 ± 0.12
UniProt Q9H3U1 and related entries,0.997 ± 0.036,0.969 ± 0.034
UniProt Q9H7Z6 and related entries,1.02 ± 0.026,1.05 ± 0.043
UniProt Q9H2P9 and related entries,1.02 ± 0.06,0.994 ± 0.011
UniProt Q9H165 and related entries,1.05 ± 0.19,0.993 ± 0.11

# Two entries from above, as tab-separated lines:
Target	NP40-soluble protein abundance (concentration: 0.1mM)	NP40-soluble protein abundance (concentration: 0.5mM)
UniProt Q9H7H0 and related entries	0.961 ± 0.051	1.06 ± 0.12
UniProt Q9GZU8	0.938 ± 0.044	0.917 ± 0.028
